Reference: PubChem BioAssay AID1224830 (NIAID, 2016)
This is one part, drawn at random, of about 18,000 reagents. Over the whole deposit, about 2,900 (16%) were called active. 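Calls are made per well; low scores hint the gene aids the LPS response, high scores that it dampens it.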 Unmarked entries are inactive. Repeated entries: four replicate wells of each siRNA pool.

- Assay: 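Regulators of TLR4 signalling towards TNF-alpha in macrophage-like cells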 (primary screen)
- System: human THP-1 monocytic leukaemia cells, TNF dual-luciferase reporter clone, PMA-differentiated to macrophage-like cells
- Reagents: siRNA pool against human genes, 50 nM
- Time to read-out: LPS for 4 h, given about 3 days after siRNA transfection
- Conditions: bacterial LPS (TLR4 ligand), 10 ng/ml
- Measurement: 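Ratio of firefly to renilla light, scaled to the plate median and expressed as a robust z-score per replicate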
- Direction: TNF reporter robust z-score: higher = stronger TNF reporter response to LPS
- Hit rule: 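a well is active when its z-score exceeds 2.8 or falls below -1.5; control wells carry no call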

target | PubChem SID | TNF reporter robust z-score
FAM217B | SID315458781 | 0.45
FAM217B | SID315458781 | 1.17
FAM217B | SID315458781 | 0.89
FAM217B | SID315458781 | 0.66
MFRP | SID315460024 | 0.43
MFRP | SID315460024 | 0.68
MFRP | SID315460024 | 0.29
MFRP | SID315460024 | 0.63
BMPER | SID315462873 | 0.51
BMPER | SID315462873 | 0.77
BMPER | SID315462873 | 1.02
BMPER | SID315462873 | 1.77
CHRM1 | SID315447918 | -0.56
CHRM1 | SID315447918 | -0.02
CHRM1 | SID315447918 | 0.26
MNMIP1 | SID315459418 | -0.4
MNMIP1 | SID315459418 | 0.83
MNMIP1 | SID315459418 | -0.09
MNMIP1 | SID315459418 | -0.59
OPA1 | SID315450357 | -1.18
OPA1 | SID315450357 | -0.65
OPA1 | SID315450357 | -0.79
OPA1 | SID315450357 | -0.49
MPPE1 | SID315459101 | -0.21
MPPE1 | SID315459101 | -0.01
MPPE1 | SID315459101 | -1.1
MPPE1 | SID315459101 | -0.44
RPA2 | SID315451166 | -0.59
RPA2 | SID315451166 | -0.8
RPA2 | SID315451166 | -0.71
RPA2 | SID315451166 | 0.13
LGI1 | SID315453125 | -0.75
LGI1 | SID315453125 | -0.59
LGI1 | SID315453125 | -0.5
LGI1 | SID315453125 | -0.43
SLC18B1 | SID315461393 | 0
SLC18B1 | SID315461393 | -0.01
SLC18B1 | SID315461393 | 0.37
SLC18B1 | SID315461393 | 0.57
BTF3 | SID315447596 | 0.39
BTF3 | SID315447596 | 0.69
BTF3 | SID315447596 | 0.1
BTF3 | SID315447596 | 1.03
SIAH1 | SID315451423 | -1
SIAH1 | SID315451423 | -0.49
SIAH1 | SID315451423 | 0.06
SIAH1 | SID315451423 | 0.04
SCARA3 | SID315456710 | -0.03
SCARA3 | SID315456710 | -0.1
SCARA3 | SID315456710 | -0.36
SCARA3 | SID315456710 | -0.34
EPS8L1 | SID315457223 | -0.44
EPS8L1 | SID315457223 | 1.19
EPS8L1 | SID315457223 | 1.36
EPS8L1 | SID315457223 | 0.1
MACROD2 | SID315462131 | -0.65
MACROD2 | SID315462131 | 0.41
MACROD2 | SID315462131 | -0.47
MACROD2 | SID315462131 | 0.07
RHOD | SID315456262 | 0.17
RHOD | SID315456262 | 1.64
RHOD | SID315456262 | 0.69
RHOD | SID315456262 | 1.4
IQCC | SID315457800 | 0.2
IQCC | SID315457800 | 1.23
IQCC | SID315457800 | -0.08
IQCC | SID315457800 | 1
SLC15A4 | SID315461514 | -0.13
SLC15A4 | SID315461514 | 0.44
SLC15A4 | SID315461514 | -0.29
SLC15A4 | SID315461514 | -0.48
TLR7 | SID315456610 | 0.34
TLR7 | SID315456610 | -0.44
TLR7 | SID315456610 | 0.88
TLR7 | SID315456610 | -0.18
CDH23 | SID315458806 | 0.71
CDH23 | SID315458806 | -0.32
CDH23 | SID315458806 | 1.57
CDH23 | SID315458806 | 1.93
SNX20 | SID315461613 | -0.61
SNX20 | SID315461613 | -0.56
SNX20 | SID315461613 | -1.1
SNX20 | SID315461613 | -0.7
RPLP0 | SID315451207 | -0.65
RPLP0 | SID315451207 | 1.18
RPLP0 | SID315451207 | 0.16
RPLP0 | SID315451207 | 2.22
SLC6A6 | SID315451472 | 0.3
SLC6A6 | SID315451472 | -0.23
SLC6A6 | SID315451472 | -0.29
SLC6A6 | SID315451472 | 0.13
GRPR | SID315449068 | -0.1
GRPR | SID315449068 | 0.14
GRPR | SID315449068 | -0.22
GRPR | SID315449068 | 0.04
KDM3B | SID315456894 | -0.38
KDM3B | SID315456894 | -0.21
KDM3B | SID315456894 | -0.86
KDM3B | SID315456894 | 0.12
CRB3 | SID315461006 | -1.21
CRB3 | SID315461006 | -0.96
CRB3 | SID315461006 | -1.28
GZMB | SID315449126 | 1.2
GZMB | SID315449126 | 0.31
GZMB | SID315449126 | 0.01
GZMB | SID315449126 | 1.1
ACTL7A | SID315454423 | -0.99
ACTL7A | SID315454423 | -1.09
ACTL7A | SID315454423 | -1.04
ACTL7A | SID315454423 | -0.87
ZNF800 | SID315462874 | -0.44
ZNF800 | SID315462874 | 0.04
ZNF800 | SID315462874 | 0.24
ZNF800 | SID315462874 | 0.39
MEIOB | SID315463459 | 0.1
MEIOB | SID315463459 | -0.08
MEIOB | SID315463459 | -0.51
MEIOB | SID315463459 | 0.36
PVALB | SID315450984 | -0.61
PVALB | SID315450984 | 0.05
PVALB | SID315450984 | -0.26
PVALB | SID315450984 | 0.02
PRSS57 | SID315464750 | -1
PRSS57 | SID315464750 | -0.4
PRSS57 | SID315464750 | -0.46
PRSS57 | SID315464750 | 0.24
UCN2 | SID315460794 | -0.3
UCN2 | SID315460794 | 0.46
UCN2 | SID315460794 | -0.07
UCN2 | SID315460794 | 0.19
OXSR1 | SID315453697 | 0.58
OXSR1 | SID315453697 | -0.87
OXSR1 | SID315453697 | -0.81
OXSR1 | SID315453697 | -0.33
PIPOX | SID315456597 | 0.85
PIPOX | SID315456597 | 2.72
PIPOX | SID315456597 | 1.2
PIPOX | SID315456597 | 1.45
SIRT2 | SID315454887 | 0.19
SIRT2 | SID315454887 | 0.84
SIRT2 | SID315454887 | -0.53
SIRT2 | SID315454887 | 0.73

24 entries from above, ordered by “TNF reporter robust z-score”, lowest first.
target | PubChem SID | TNF reporter robust z-score
CRB3 | SID315461006 | -1.28
CRB3 | SID315461006 | -1.21
ACTL7A | SID315454423 | -1.09
ACTL7A | SID315454423 | -1.04
ACTL7A | SID315454423 | -0.99
CRB3 | SID315461006 | -0.96
ACTL7A | SID315454423 | -0.87
KDM3B | SID315456894 | -0.86
PVALB | SID315450984 | -0.61
MEIOB | SID315463459 | -0.51
ZNF800 | SID315462874 | -0.44
PVALB | SID315450984 | -0.26
MEIOB | SID315463459 | -0.08
GZMB | SID315449126 | 0.01
ZNF800 | SID315462874 | 0.04
PVALB | SID315450984 | 0.05
MEIOB | SID315463459 | 0.1
KDM3B | SID315456894 | 0.12
ZNF800 | SID315462874 | 0.24
GZMB | SID315449126 | 0.31
MEIOB | SID315463459 | 0.36
ZNF800 | SID315462874 | 0.39
GZMB | SID315449126 | 1.1
GZMB | SID315449126 | 1.2
